Source: PubChem BioAssay AID1259308 (NCATS, 2017)

Screen: 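Knock-downs that increase output of a recombinant reporter protein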 (primary screen)
Cell system: human HEK293 embryonic kidney cells stably expressing firefly luciferase (HEK-CMV-Luc2-Hygro)
Reagent: single siRNA against human genes, 0.8 pmol siRNA per well
Time to read-out: 72 h
Read-out: 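Luciferase light (ONE-Glo) measured on one replicate plate set and viability (CellTiter-Glo) on the other, scaled to a negative control siRNA, with robust z-scores and luciferase per cell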
Reading the numbers: total luciferase, z-score and total luciferase, % of control: higher = more reporter protein produced; luciferase per cell, z-score: higher = more reporter output per viable cell; viable cells, % of control: higher = more viable cells
Active means: 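Active when the median/MAD z-score for overall luciferase is greater than 3; a gene was taken forward for validation with new siRNAs if at least two of its three siRNAs passed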
Calls: active = raised luciferase; inactive = no rise
In all, the deposit lists about 59,000 reagents; below is a random part of them. Over the whole deposit, about 1,510 (2.6%) are marked active. 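Calls use total luciferase alone and ignore viability, so some active siRNAs may act by altering cell number.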 Reagents against one gene are numbered here.

target,reagent no.,"total luciferase, z-score","total luciferase, % of control","luciferase per cell, z-score","viable cells, % of control",Outcome
GSTA5,1,-0.631,69.3,-1.36,111,inactive
GSTA5,2,-0.121,79.5,-0.258,95,inactive
GSTA5,3,-0.773,66.5,-1.09,98.9,inactive
KRTAP2-4,1,1.18,105,0.692,98,inactive
KRTAP2-4,2,-0.475,72.4,0.112,78.6,inactive
KRTAP2-4,3,-0.31,75.7,-0.348,92.7,inactive
USP34,1,-0.414,73.6,0.0188,81.9,inactive
USP34,2,-0.04,81.1,0.0285,89.9,inactive
USP34,3,-0.346,75,-0.583,97.7,inactive
CABCOCO1,1,0.949,101,2.24,62.5,inactive
CABCOCO1,2,1.28,107,0.699,99.8,inactive
CABCOCO1,3,0.244,86.7,-0.311,105,inactive
GCSH,1,-0.648,69,-0.715,93.1,inactive
GCSH,2,-2.76,27,-1.81,48.7,inactive
GCSH,3,-0.62,69.6,-0.53,89.4,inactive
RPUSD1,1,-0.306,75.8,-0.255,90.6,inactive
RPUSD1,2,-1.83,45.4,-2.7,103,inactive
RPUSD1,3,0.402,89.9,0.112,97.5,inactive
RPL13AP20,1,-2.43,33.5,-1.42,54.4,inactive
RPL13AP20,2,-2.37,34.7,-1.25,53.8,inactive
RPL13AP20,3,-2.96,23,-2.75,52.9,inactive

3 neighbouring records already listed, quoted:
target,reagent no.,"total luciferase, z-score","total luciferase, % of control","luciferase per cell, z-score","viable cells, % of control",Outcome
CABCOCO1,2,1.28,107,0.699,99.8,inactive
CABCOCO1,3,0.244,86.7,-0.311,105,inactive
GCSH,1,-0.648,69,-0.715,93.1,inactive

Continued.
target,reagent no.,"total luciferase, z-score","total luciferase, % of control","luciferase per cell, z-score","viable cells, % of control",Outcome
VAV1,1,4.24,166,3.15,81.2,active
VAV1,2,0.512,92.1,0.118,99.7,inactive
VAV1,3,2.68,135,2.18,85,inactive
HOXC8,1,-1.34,55.2,-0.726,74.7,inactive
HOXC8,2,-0.81,65.8,-0.799,90.7,inactive
HOXC8,3,-1.53,51.5,-1.32,81.3,inactive
SOX3,1,-1.09,60.3,-1.06,89.1,inactive
SOX3,2,0.336,88.6,-0.301,107,inactive
SOX3,3,0.0256,82.4,-0.295,99.5,inactive
GPAT2,1,-0.0189,81.5,-0.0519,92.3,inactive
GPAT2,2,0.184,85.5,-0.0685,97.3,inactive
GPAT2,3,0.389,89.6,-0.115,103,inactive
SLC1A2,1,-0.206,77.8,0.0258,86.3,inactive
SLC1A2,2,1.35,109,0.825,97.8,inactive
SLC1A2,3,2.38,129,1.51,96.9,inactive
UGT1A5,1,-0.899,64,-0.361,78.7,inactive
UGT1A5,2,0.139,84.7,0.094,92.3,inactive
UGT1A5,3,-0.744,67.1,-0.834,93.4,inactive
LYAR,1,-1.33,55.5,-0.488,70.6,inactive
LYAR,2,0.916,100,0.811,90.4,inactive
LYAR,3,-0.67,68.6,-0.241,81.6,inactive
GCKR,1,0.199,85.8,1.31,67.9,inactive
GCKR,2,0.00795,82,-0.585,107,inactive
GCKR,3,1.56,113,1.32,89.2,inactive
CCNB2,1,0.255,87,-0.536,112,inactive
CCNB2,2,-1.06,60.8,-1.22,93.8,inactive
CCNB2,3,2.05,123,1.95,81.9,inactive
MRPS35,1,-0.561,70.7,-0.787,97.2,inactive
MRPS35,2,-0.156,78.8,-0.49,100,inactive
MRPS35,3,0.858,99,1.15,81.8,inactive
HEATR5B,1,-0.438,73.2,-0.786,101,inactive
HEATR5B,2,0.213,86.1,0.0177,95.8,inactive
HEATR5B,3,0.0544,83,-0.47,105,inactive
PEX26,1,1.05,103,0.454,102,inactive
PEX26,2,1.82,118,0.923,104,inactive
PEX26,3,0.238,86.6,0.162,92.8,inactive
